Assay results published in the supplement of paper PMC6078165.
± gives the standard deviation of the averaged measurements. Values are relative to the signal before dosing, not to a vehicle control; the signal also falls without drug.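 Fibroblast labels name human fibroblasts: mostly primary ones from tissues such as uterus (C12385, HUF), lung (H6013), bone (Hs27A), adrenal (HADF) and skin (WS1), plus mammary HMF and breast cancer-associated Hs343T. The cancer cells are basal-like or mesenchymal-like triple-negative breast cancer lines. The paper calls a changed response a hit when it shifts by more than 3x the replicate standard deviation. The tissue of the other fibroblasts is not given here.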

Tested on: MDAMB468
Assay: relative JC-1 red fluorescence (viability) vs pre-drug, coculture with fibroblast (fraction); higher = more viable cancer cells
Protocol: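 JC-1 labelled TNBC cells cocultured 1:1 (1,500 cells each) with CellTrace Violet stained primary or stromal fibroblasts in 384-well plates in FluoroBrite medium, treated with one of 42 anticancer drugs at 0.1, 1, 10 or 100 uM. JC-1 red fluorescence (mitochondrial integrity in cancer cells only) was read by plate reader every 8 h for 72 h. Values are normalised to each well's pre-drug value. The stock of one drug was tenfold lower, so its dose labels may be too high.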

O=NN(CCCl)C(=O)NCCCl [Carmustine]
relative JC-1 red fluorescence
Conditions | 8 h | 16 h | 24 h | 32 h | 40 h | 48 h | 56 h | 64 h | 72 h
0.1 µM, coculture fibroblast: C12385 | 0.898 ± 0.021 | 0.84 ± 0.045 | 0.844 ± 0.051 | 0.782 ± 0.045 | 0.747 ± 0.056 | 0.735 ± 0.048 | 0.694 ± 0.043 | 0.676 ± 0.04 | 0.661 ± 0.041
0.1 µM, coculture fibroblast: H6013 | 0.896 ± 0.011 | 0.84 ± 0.024 | 0.79863 ± 9.1e-05 | 0.7915 ± 0.002 | 0.772 ± 0.017 | 0.788 ± 0.016 | 0.759 ± 0.022 | 0.742 ± 0.026 | 0.701 ± 0.021
0.1 µM, coculture fibroblast: H6019 | 0.8405 ± 0.004 | 0.789 ± 0.043 | 0.768 ± 0.056 | 0.708 ± 0.055 | 0.666 ± 0.05 | 0.645 ± 0.05 | 0.598 ± 0.035 | 0.555 ± 0.031 | 0.525 ± 0.029
0.1 µM, coculture fibroblast: H6076 | 0.955 ± 0.015 | 0.9635 ± 0.00081 | 0.897 ± 0.022 | 0.92 ± 0.016 | 0.854 ± 0.011 | 0.86 ± 0.016 | 0.83 ± 0.02 | 0.818 ± 0.027 | 0.889 ± 0.033
0.1 µM, coculture fibroblast: H6231 | 0.84 ± 0.014 | 0.892 ± 0.019 | 0.81876 ± 0.00071 | 0.8024 ± 0.0056 | 0.7369 ± 0.0062 | 0.719 ± 0.0097 | 0.675 ± 0.00083 | 0.66 ± 0.013 | 0.646 ± 0.0086
0.1 µM, coculture fibroblast: HADF | 0.8873 ± 0.0014 | 0.868 ± 0.017 | 0.779 ± 0.017 | 0.766 ± 0.02 | 0.704 ± 0.026 | 0.693 ± 0.027 | 0.643 ± 0.02 | 0.621 ± 0.024 | 0.587 ± 0.018
0.1 µM, coculture fibroblast: HCFa | 0.8793 ± 0.0059 | 0.79973 ± 0.00041 | 0.751 ± 0.017 | 0.73 ± 0.016 | 0.664 ± 0.026 | 0.655 ± 0.03 | 0.602 ± 0.039 | 0.566 ± 0.038 | 0.51 ± 0.034
0.1 µM, coculture fibroblast: HCPF | 0.8885 ± 0.0028 | 0.963 ± 0.042 | 0.874 ± 0.064 | 0.853 ± 0.0097 | 0.774 ± 0.024 | 0.756 ± 0.015 | 0.7058 ± 0.0066 | 0.6907 ± 0.0033 | 0.686 ± 0.016
0.1 µM, coculture fibroblast: HHSteC | 0.899 ± 0.011 | 0.852 ± 0.014 | 0.78566 ± 8.5e-05 | 0.768 ± 0.012 | 0.7094 ± 0.0014 | 0.69894 ± 0.0004 | 0.636 ± 0.0088 | 0.612 ± 0.013 | 0.565 ± 0.018
0.1 µM, coculture fibroblast: HMF | 0.8627 ± 0.0084 | 0.931 ± 0.017 | 0.859 ± 0.043 | 0.856 ± 0.043 | 0.787 ± 0.025 | 0.782 ± 0.022 | 0.736 ± 0.024 | 0.721 ± 0.017 | 0.721 ± 0.017
0.1 µM, coculture fibroblast: HPFa | 0.923 ± 0.018 | 0.897 ± 0.011 | 0.831 ± 0.0092 | 0.772 ± 0.0097 | 0.724 ± 0.011 | 0.72 ± 0.025 | 0.647 ± 0.02 | 0.61 ± 0.024 | 0.531 ± 0.015
0.1 µM, coculture fibroblast: HUF | 0.912 ± 0.019 | 0.86 ± 0.046 | 0.81 ± 0.043 | 0.738 ± 0.03 | 0.677 ± 0.04 | 0.651 ± 0.041 | 0.609 ± 0.036 | 0.583 ± 0.045 | 0.555 ± 0.046
0.1 µM, coculture fibroblast: Hs5 | 0.8206 ± 0.0054 | 0.9 ± 0.12 | 0.933 ± 0.026 | 0.9081 ± 0.0051 | 0.847 ± 0.0055 | 0.8067 ± 0.0066 | 0.76 ± 0.02 | 0.715 ± 0.02 | 0.73 ± 0.026
0.1 µM, coculture fibroblast: Hs27A | 0.8403 ± 0.007 | 0.758 ± 0.0079 | 0.734 ± 0.015 | 0.734 ± 0.014 | 0.666 ± 0.015 | 0.6549 ± 0.0059 | 0.62 ± 0.0072 | 0.599 ± 0.014 | 0.561 ± 0.0069
0.1 µM, coculture fibroblast: Hs343T | 0.932 ± 0.042 | 0.814 ± 0.088 | 0.822 ± 0.023 | 0.928 ± 0.095 | 0.849 ± 0.071 | 0.832 ± 0.07 | 0.772 ± 0.035 | 0.748 ± 0.034 | 0.727 ± 0.025
0.1 µM, coculture fibroblast: WS1 | 0.8864 ± 0.0067 | 0.812 ± 0.024 | 0.747 ± 0.014 | 0.684 ± 0.015 | 0.639 ± 0.019 | 0.611 ± 0.02 | 0.583 ± 0.023 | 0.552 ± 0.02 | 0.54 ± 0.019
1 µM, coculture fibroblast: C12385 | 0.859 ± 0.0093 | 0.837 ± 0.0085 | 0.8179 ± 0.0029 | 0.774 ± 0.016 | 0.748 ± 0.028 | 0.752 ± 0.043 | 0.717 ± 0.044 | 0.706 ± 0.061 | 0.706 ± 0.077
1 µM, coculture fibroblast: H6013 | 0.8377 ± 0.0081 | 0.8443 ± 0.0024 | 0.805 ± 0.0094 | 0.795 ± 0.018 | 0.7875 ± 0.0016 | 0.8006 ± 0.0036 | 0.7767 ± 0.0031 | 0.764 ± 0.0083 | 0.72 ± 0.016
1 µM, coculture fibroblast: H6019 | 0.8049 ± 0.0063 | 0.81 ± 0.017 | 0.791 ± 0.045 | 0.764 ± 0.057 | 0.749 ± 0.077 | 0.741 ± 0.09 | 0.698 ± 0.09 | 0.676 ± 0.093 | 0.651 ± 0.098
1 µM, coculture fibroblast: H6076 | 0.899 ± 0.019 | 0.889 ± 0.042 | 0.877 ± 0.077 | 0.897 ± 0.091 | 0.834 ± 0.091 | 0.849 ± 0.1 | 0.838 ± 0.11 | 0.838 ± 0.11 | 0.903 ± 0.11
1 µM, coculture fibroblast: H6231 | 0.848 ± 0.023 | 0.855 ± 0.0087 | 0.816 ± 0.037 | 0.831 ± 0.045 | 0.758 ± 0.053 | 0.747 ± 0.054 | 0.704 ± 0.067 | 0.693 ± 0.076 | 0.693 ± 0.09
1 µM, coculture fibroblast: HADF | 0.888 ± 0.037 | 0.8189 ± 0.0011 | 0.768 ± 0.0084 | 0.755 ± 0.029 | 0.707 ± 0.029 | 0.692 ± 0.031 | 0.656 ± 0.039 | 0.646 ± 0.039 | 0.615 ± 0.049
1 µM, coculture fibroblast: HCFa | 0.8393 ± 0.0037 | 0.829 ± 0.025 | 0.775 ± 0.043 | 0.745 ± 0.056 | 0.698 ± 0.068 | 0.681 ± 0.084 | 0.635 ± 0.087 | 0.591 ± 0.086 | 0.541 ± 0.081
1 µM, coculture fibroblast: HCPF | 0.82 ± 0.013 | 0.865 ± 0.013 | 0.826 ± 0.01 | 0.8356 ± 0.00014 | 0.75664 ± 2.8e-05 | 0.737 ± 0.015 | 0.705 ± 0.014 | 0.695 ± 0.014 | 0.701 ± 0.017
1 µM, coculture fibroblast: HHSteC | 0.865 ± 0.01 | 0.86 ± 0.029 | 0.827 ± 0.038 | 0.797 ± 0.037 | 0.769 ± 0.053 | 0.763 ± 0.054 | 0.703 ± 0.059 | 0.687 ± 0.072 | 0.635 ± 0.066
1 µM, coculture fibroblast: HMF | 0.825 ± 0.011 | 0.857 ± 0.024 | 0.818 ± 0.012 | 0.803 ± 0.013 | 0.724 ± 0.013 | 0.714 ± 0.018 | 0.679 ± 0.02 | 0.663 ± 0.016 | 0.663 ± 0.021
1 µM, coculture fibroblast: HPFa | 0.942 ± 0.02 | 0.8706 ± 0.0024 | 0.846 ± 0.0017 | 0.79453 ± 0.00052 | 0.768 ± 0.014 | 0.771 ± 0.013 | 0.7 ± 0.015 | 0.675 ± 0.012 | 0.583 ± 0.021
1 µM, coculture fibroblast: HUF | 0.8633 ± 0.0027 | 0.8031 ± 0.0049 | 0.767 ± 0.017 | 0.706 ± 0.024 | 0.655 ± 0.038 | 0.635 ± 0.042 | 0.587 ± 0.04 | 0.571 ± 0.042 | 0.56 ± 0.04
1 µM, coculture fibroblast: Hs5 | 0.973 ± 0.011 | 0.917 ± 0.012 | 0.8943 ± 0.0081 | 0.866 ± 0.015 | 0.785 ± 0.015 | 0.756 ± 0.022 | 0.724 ± 0.025 | 0.685 ± 0.021 | 0.7 ± 0.025
1 µM, coculture fibroblast: Hs27A | 0.8594 ± 0.004 | 0.849 ± 0.0088 | 0.78 ± 0.0097 | 0.777 ± 0.019 | 0.726 ± 0.016 | 0.716 ± 0.016 | 0.6766 ± 0.0034 | 0.6536 ± 0.003 | 0.614 ± 0.0083
1 µM, coculture fibroblast: Hs343T | 0.851 ± 0.03 | 0.872 ± 0.014 | 0.8388 ± 0.0036 | 0.823 ± 0.013 | 0.735 ± 0.019 | 0.717 ± 0.015 | 0.678 ± 0.03 | 0.666 ± 0.032 | 0.661 ± 0.042
1 µM, coculture fibroblast: WS1 | 0.8506 ± 0.0032 | 0.812 ± 0.017 | 0.776 ± 0.018 | 0.728 ± 0.019 | 0.681 ± 0.016 | 0.664 ± 0.024 | 0.643 ± 0.034 | 0.622 ± 0.025 | 0.615 ± 0.021
